Measurements as given in US9962341B2, “Active pharmaceutical ingredient (API) comprising cannabinoids for use in the treatment of cancer” (GW Pharma Limited, priority 2014, dated 2018).

Columns and labels:
Format in all cases: cell-based
WM115 = test: Cell viability (CellTiter-Blue, 72 h), WM115 melanoma cells; details: WM115, 1% FBS
Procedure: (§1) The following cell lines were tested in this example: Lung Cancer (A549, NCI-H460); Pancreatic cancer (PANC1, Mia-Pa-Ca-2); Melanoma (WM115, A375); Ovarian cancer (OVCAR3, SKOV3); Gastric cancer (MKN45, HGC-27); Renal cancer (ACHN) and Bladder Cancer (RT112).
(§2) Each tumour cell line was maintained in vitro in RPMI 1640+10% heat inactivated FBS and 2 mM L-glutamine (growth media) at 37° C. in 5% CO2 and humidified conditions. The cells were harvested, washed, re-suspended into growth medium and counted. The cells were re-suspended into assay media (RPMI 1640+5% heat inactivated FBS+ and 2 mM L-glutamine) at 4×10^4 cells/ml (dependent upon cell type) and plated into the middle 240 wells of 384 well tissue culture plates (Corning CellBind, black-wall plates) 25 μl/well aliquots; 50 μl of growth media was aliquoted into the outer wells. There were 3 plates for each cell line.
(§3) The plates were incubated overnight at 37° C., in 5% humidified CO2.
(§4) The phytocannabinoid test compounds were prepared in 100% DMSO vehicle at a stock concentration of 20 and 40 mM.
(§5) Starting with the 20 mM stock in DMSO, this was serially diluted (2 fold) in DMSO in a 96-well plate, to 20 (no dilution), 10, 5, 2.5, 1.25, 0.625, 0.315, 0.157 and […]. Following this, 10 ul of each compound dilution was diluted into 990 ul of 1% (v/v) FBS media in a deep well block making the final concentrations of 200, 100, 50, 25, 12.5, 6.25, 3.125, 1.56 and 0.79 μM (2× final assay concentrations and 1% DMSO).
(§6) An equal volume of each cannabinoid in the combination (stock concentration 40 mM) was mixed together to make a stock of 20 mM of each cannabinoid in DMSO. This was serially diluted (2 fold) in DMSO in a 96-well plate, to 20 (no dilution), 10, 5, 2.5, 1.25, 0.625, 0.315, 0.157 and […]. Following this, 10 ul of each combination dilution was diluted into 990 ul of 1% (v/v) FBS media in a deep well block making the final concentrations of 200, 100, 50, 25, 12.5, 6.25, 3.125, 1.56 and 0.79 μM (2× final assay concentrations and 1% DMSO).
(§7) Cisplatin (stock of 1 mg/ml=3.33 mM in water) was diluted in 1% FBS media to give a stock concentration of 1 mM. This was then diluted in 1% FBS media from the stock solution to 200 μM, then serially diluted (3-fold) in 1% FBS media to 200 (no dilution), 66.66, 22.22, 7.41, 2.47, 0.82, 0.27, 0.09, 0.03 μM (2× final assay concentrations; no DMSO).
(§8) The plates were incubated for 72 h at 37° C. in 5% humidified CO2. To develop the plates, at 72 h, 10 μl of CellTiter-Blue™ reagent was added to each test/blank well.
(§9) The plates were incubated at 37° C., 5% humidified CO2. Fluorescence was measured using a Flex II Station plate reader (570 nm excitation wavelength, 600 nm emission wavelength, 590 nm cut-off) after 3 h.
(§10) The phytocannabinoid compounds CBD, CBGA, CBG, CBDA, THCV and THC were tested on a panel of lung (A549, NCI-H460), pancreatic (PANC1, Mia-Pa-Ca-2), melanoma (WM115, A375), ovarian (OVCAR3, SKOV3), gastric (MKN45, HGC-27), renal (ACHN) and bladder (RT112) cancer cell lines according to the protocol for 72 h in media containing 1% FBS.
(§11) The IC50 values for each phytocannabinoid and combination of CBD with the other phytocannabinoids was calculated for each cell line. The raw data values expressed in relative fluorescent units were normalised to the vehicle for each individual plate and any reduction in fluorescence indicated a decrease in viability.
(§12) This calculation was as described in Example 1 above.

ACHN = test: Cell viability (CellTiter-Blue, 72 h), ACHN renal cancer cells; details: 1% FBS
Procedure: as §1, §2, §3, §4, §5, §6
(§13) Taxotere SOC was prepared in 100% DMSO to give a stock concentration of 10 mM. This was diluted in DMSO from the stock solution to 200 μM, then serially diluted (3-fold) in DMSO to 200 (no dilution), 66.66, 22.22, 7.41, 2.47, 0.82, 0.27, 0.09, 0.03 μM. 10 ul of each of the taxotere dilutions was diluted in 990 ul of 1% (v/v) FBS media making the final concentrations of 2, 0.67, 0.22, 0.074, 0.0247, 0.0082, 0.0027 0.0009, 0.0003 μM (2× final assay concentrations and 1% DMSO).
as §8, §9, §10, §11, §12

A549 = test: Cell viability (CellTiter-Blue, 72 h), A549 lung cancer cells; details: A549, 1% FBS
Procedure: as §1, §2, §3, §4, §5, §6, §13, §8, §9, §10, §11, §12

A375 = test: Cell viability (CellTiter-Blue, 72 h), A375 melanoma cells; details: A375, 1% FBS
Procedure: as §1, §2, §3, §4, §5, §6, §7, §8, §9, §10, §11, §12

| SMILES | m (shape parameter of dose effect curve) (WM115) | m (shape parameter of the curve) (ACHN) | m (shape parameter of dose effect curve) (A549) | m (shape parameter of dose effect curve) (A375) |
| --- | --- | --- | --- | --- |
| C=C(C)[C@@H]1CCC(C)=C[C@H]1c1c(O)cc(CCCCC)cc1O [CBD, Cannabidiol] | 2.11 | 9.47 | 5.17 | 8.30 |
| C=C(C)[C@@H]1CCC(C)=C[C@H]1c1c(O)cc(CCCCC)c(C(=O)O)c1O [CBDA, Cannabidiolic acid] | 3.16 | 3.57 | 2.30 | 3.85 |
| CCCCCc1cc(O)c(C/C=C(\C)CCC=C(C)C)c(O)c1 [CBG, Cannabigerol] | 3.25 | 7.00 | 10.40 | 3.24 |
| CCCCCc1cc(O)c(C/C=C(\C)CCC=C(C)C)c(O)c1C(=O)O [CBGA, Cannabigerolic acid] | 3.78 | 6.02 | 4.27 | 3.46 |
| CCCc1cc(O)c2c(c1)OC(C)(C)[C@@H]1CCC(C)=C[C@@H]21 [THCV, Tetrahydrocannabivarin] | 6.56 | 6.63 | 4.01 | 5.87 |
